One assay deals with GST-eIF4E2 (UniProt O60573). Nature of the assay: pull-down.
Assay [1] addresses endogenous eIF4E2 (not stated (endogenous, cell line not named)) (UniProt O60573). Nature of the assay: co-IP.

Chains of the proteins cited; added tags and fusions are not shown.
UniProt O60573: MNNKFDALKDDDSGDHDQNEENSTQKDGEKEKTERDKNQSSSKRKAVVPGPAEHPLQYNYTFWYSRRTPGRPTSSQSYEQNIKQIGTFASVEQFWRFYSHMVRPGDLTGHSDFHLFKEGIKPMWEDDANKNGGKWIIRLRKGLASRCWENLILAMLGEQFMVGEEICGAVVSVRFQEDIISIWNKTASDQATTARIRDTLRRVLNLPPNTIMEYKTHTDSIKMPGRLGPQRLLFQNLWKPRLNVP

Results are given in words; binding and its absence hold for the method and conditions named. Binding seen in cells or lysates may run through a third protein. Some entries that bind do so weakly or less than the wild type. For some assays here: Where a sequence is shown, tags or fusion partners need not be part of it.

B1: His-RBM38 (protein, UniProt Q9H0Z9 1-239)
chain: MLLQPAPCAPSAGFPRPLAAPGAMHGSQKDTTFTKIFVGGLPYHTTDASLRKYFEGFGDIEEAVVITDRQTGKSRGYGFVTMADRAAAERACKDPNPIIDGRKANVNLAYLGAKPRSLQTGFAIGVQQLHPTLIQRTYGLTPHYIYPPAIVQPSVVIPAAPVPSLSSPYIEYTPASPAYAQYPPATYDQYPYAASPATAASFVGYSYPAAVPQALSAAAPAGTTFVQYQAPQLQPDRMQ
With B1, the binding entry with GST-eIF4E2 is given as “binds”.

B2: endogenous RBM38 (protein, UniProt Q9H0Z9 1-239)
chain: MLLQPAPCAPSAGFPRPLAAPGAMHGSQKDTTFTKIFVGGLPYHTTDASLRKYFEGFGDIEEAVVITDRQTGKSRGYGFVTMADRAAAERACKDPNPIIDGRKANVNLAYLGAKPRSLQTGFAIGVQQLHPTLIQRTYGLTPHYIYPPAIVQPSVVIPAAPVPSLSSPYIEYTPASPAYAQYPPATYDQYPYAASPATAASFVGYSYPAAVPQALSAAAPAGTTFVQYQAPQLQPDRMQ
For B2, in assay [1], the binding result is reported as “binds”.

Values taken from article doi:10.1101/2020.10.20.346569.
